Source: PubChem BioAssay AID652243 (Drosophila RNAi Screening Center, 2013)
The deposit covers about 24,000 reagents; shown is an unselected part of those with a known target gene and a result. Of all reagents, 246 (1%) got an active call. 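Plates not normalised; calls are printed but the firefly/Renilla ratio behind them is not deposited; fold cut for lowering reported inconsistently.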 Raw values are not corrected between plates. A number with no mark means an inactive call. Reagents against one gene are numbered here. A plus sign joins genes that one reagent is predicted to hit. Not given: the amount of reagent.

- Purpose: 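Fly genes required for human androgen receptor driven transcription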 (primary screen)
- Cell system: Drosophila S2R+ cells
- Reagents: long dsRNA against Drosophila genes
- Timing: 72 h (48 h, then 24 h hormone)
- Challenge: synthetic androgen R1881 at 10 nM for 24 h
- Measurement: 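Per-well raw luminescence of the androgen-driven firefly reporter and of the Renilla control, two replicates each, without normalisation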
- Reading the numbers: firefly reporter light: higher = more light from androgen-responsive reporter; Renilla control light: higher = more constitutive control signal (cell number, transfection)
- Rule for the call: 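Hit when the log firefly-to-Renilla ratio dropped or increased by a fixed fold versus the mean of GFP or LacZ controls across duplicate plates; lowering cut given as 1.5 and as 3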
- Meaning of the calls: active = hit: reporter lowered or raised; inactive = no hit

Gene	reagent	firefly reporter light, replicate 1	firefly reporter light, replicate 2	Renilla control light, replicate 1	Renilla control light, replicate 2
Rca1 (Regulator of cyclin A1)	1	1.17e5	1.17e5	1.28e6	1.36e6
CG5382	1	93837	86329	5.66e5	5.52e5
Galphas (G protein alpha subunit s)	1	1.33e6	5.03e5	2.20e6	1.29e6
CG44014 + CG44013	1	2.54e5	2.25e5	2.61e6	2.46e6
CG44014 + CG44013	2	3.72e5	4.21e5	9.95e5	9.82e5
CG13458	1	9.12e5	8.43e5	2.01e6	1.92e6
CG13458	2	7.44e5	6.86e5	1.33e6	1.41e6
CG8851	1	1.95e5	1.27e5	1.07e6	5.54e5
CG8851	2	3.36e5	2.88e5	1.30e6	1.30e6
CG31743 + CG34313	1	6.97e5	6.63e5	2.04e6	2.49e6
CG31743 + CG34313	2	1.54e5	1.60e5	1.35e6	1.55e6
hydra	1	2.07e5	1.56e5	6.24e5	4.98e5
GstZ2 (Glutathione S transferase Z2)	1	43264	1.11e5	3.76e5	7.09e5
fz4 (frizzled 4)	1	3.13e5	3.90e5	2.59e6	2.71e6
inv (invected)	1	2.40e5	2.26e5	9.35e5	1.46e6
inv (invected)	2	3.90e5	6.92e5	6.25e5	6.25e5
CG6055	1	2.85e5	3.32e5	2.47e6	1.73e6
TER94 (Transitional endoplasmic reticulum 94)	1	8.39e5	8.66e5	1.71e6	1.60e6
TER94 (Transitional endoplasmic reticulum 94)	2	2.95e5	2.45e5	6.49e5	8.89e5
Ir94f (Ionotropic receptor 94f)	1	1.31e5	1.15e5	2.56e5	2.67e5
DJ-1alpha	1	78251	91079	2.08e6	2.08e6
CG6607	1	1.56e5	1.57e5	2.15e6	2.29e6
CG34161	1	1.33e6	1.17e6	2.10e6	1.55e6
Ddc (Dopa decarboxylase)	1	1.28e5	1.88e5	1.83e6	2.03e6
Ddc (Dopa decarboxylase)	2	4.39e5	3.38e5	9.14e5	1.25e6
CG14511	1	1.31e5	1.84e5	1.20e6	2.14e6
CG14511	2	2.31e5	2.15e5	6.56e5	7.34e5
Nin (Ninein)	1	4.69e5	6.31e5	9.29e5	1.13e6
CG14204	1	88869	86215	2.43e5	2.01e5
CG14204	2	3.91e5	3.97e5	1.05e6	1.10e6
CG3638	1	20773	17039	1.23e6	8.89e5
CG3638	2	8.79e5	1.05e6	9.32e5	1.06e6
CG41518 (retired record)	1	1.03e6	8.81e5	6.88e5	5.16e5
Acp95EF + Spase22-23	1	1.78e5	2.39e5	2.36e6	3.00e6
CG15756	1	3.40e5	2.96e5	2.60e6	2.71e6
CG15756	2	8.50e5	7.02e5	7.86e5	1.02e6
CG33308	1	2.12e5	1.80e5	4.26e5	7.90e5
Acox3 (Acyl-CoA oxidase 3)	1	1.17e5	87117	8.20e5	6.26e5
Acox3 (Acyl-CoA oxidase 3)	2	1.30e6	1.43e6	1.29e6	1.19e6
CG30053	1	3.74e5	2.69e5	2.10e5	2.27e5
Prosalpha4T2 (Proteasome alpha4 subunit, Testis-specific 2)	1	2.29e5	2.19e5	1.62e6	1.36e6
Prosalpha4T2 (Proteasome alpha4 subunit, Testis-specific 2)	2	3.66e5	5.53e5	1.41e6	2.25e6
Prosalpha4T2 (Proteasome alpha4 subunit, Testis-specific 2)	3	6.97e5	1.06e6	1.71e6	1.53e6

A stretch taken from the entries so far:
Gene	reagent	firefly reporter light, replicate 1	firefly reporter light, replicate 2	Renilla control light, replicate 1	Renilla control light, replicate 2
CG8851	1	1.95e5	1.27e5	1.07e6	5.54e5
CG8851	2	3.36e5	2.88e5	1.30e6	1.30e6
CG31743 + CG34313	1	6.97e5	6.63e5	2.04e6	2.49e6
CG31743 + CG34313	2	1.54e5	1.60e5	1.35e6	1.55e6
hydra	1	2.07e5	1.56e5	6.24e5	4.98e5
GstZ2 (Glutathione S transferase Z2)	1	43264	1.11e5	3.76e5	7.09e5
fz4 (frizzled 4)	1	3.13e5	3.90e5	2.59e6	2.71e6
inv (invected)	1	2.40e5	2.26e5	9.35e5	1.46e6

The results go on:
Gene	reagent	firefly reporter light, replicate 1	firefly reporter light, replicate 2	Renilla control light, replicate 1	Renilla control light, replicate 2
CG9512	1	1.09e5	52393	5.14e5	5.21e5
Mdh2 (Malate dehydrogenase 2)	1	34004	71829	7.85e5	1.25e6
Tim17b2 (Translocase inner membrane 17)	1	4.61e5	7.29e5	1.06e6	1.74e6
CG10353	1	3.30e5	4.31e5	3.21e6	3.14e6
CG10353	2	5.22e5	4.49e5	1.05e6	1.04e6
CG30172	1	6.50e5	5.58e5	3.13e6	2.38e6
CG30172	2	8.88e5	5.57e5	1.38e6	9.06e5
Sply (Sphingosine-1-phosphate lyase)	1	4.60e5	3.79e5	2.17e6	2.48e6
Sply (Sphingosine-1-phosphate lyase)	2	3.05e5	2.85e5	4.95e5	6.00e5
CG31639	1	2.18e5	1.84e5	7.37e5	5.04e5
CG31639	2	5.52e5	8.16e5	1.21e6	1.64e6
CG40439	1	1.11e6	7.40e5	1.58e6	1.35e6
CG40439	2	2.72e5	2.97e5	7.47e5	4.69e5
Vha100-2 (Vacuolar H[+] ATPase 100kD subunit 2)	1	1.34e5	93925	8.97e5	6.58e5
Vha100-2 (Vacuolar H[+] ATPase 100kD subunit 2)	2	5.13e5	4.51e5	1.19e6	9.72e5
scpr-B (SCP-containing protein B)	1	60862	44112	3.78e5	4.66e5
magu	1	7.77e5	5.53e5	1.45e6	1.12e6
CG4704	1	1.71e5	2.16e5	2.04e6	2.44e6
CG4259	1	1.23e5	64247	4.11e5	2.94e5
CG4259	2	1.04e6	8.73e5	1.17e6	1.17e6
CR30029 (pseudo)	1	3.87e5	3.46e5	2.25e6	2.00e6
Cox17 (Cytochrome c oxidase copper chaperone COX17)	1	4.02e5	4.26e5	2.58e6	3.24e6
PK2-R2 (Pyrokinin 2 receptor 2)	1	76123	1.24e5	1.42e6	2.16e6
PK2-R2 (Pyrokinin 2 receptor 2)	2	8.39e5	7.03e5	1.20e6	1.21e6
Gpdh1 (Glycerol-3-phosphate dehydrogenase 1)	1	9.64e5	9.63e5	1.98e6	1.75e6
Gpdh1 (Glycerol-3-phosphate dehydrogenase 1)	2	5.74e5	6.38e5	1.93e6	1.74e6
CG7382	1	8.02e5	9.40e5	1.92e6	2.06e6
CG7382	2	1.68e5	1.78e5	5.15e5	5.14e5
Delta	1	2.46e5	2.68e5	2.57e6	2.93e6
Delta	2	3.46e5	2.90e5	4.29e5	4.31e5
Gbp2 (Growth-blocking peptide 2)	1	5.78e5	5.60e5	6.35e5	4.57e5
